Measurements taken from PMC4653730.

Protein sequences, listed by entry. Tags and fused reporters are not part of them.
UniProt Q39255: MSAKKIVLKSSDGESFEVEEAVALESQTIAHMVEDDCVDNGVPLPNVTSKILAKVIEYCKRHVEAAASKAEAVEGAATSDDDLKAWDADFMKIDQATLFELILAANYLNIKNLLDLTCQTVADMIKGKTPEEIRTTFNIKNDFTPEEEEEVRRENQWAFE

B1: Gal4AD-ASK21 (protein, UniProt Q8LF97 1-351)
chain: MSEGEMAIIKPEMMKSYIWLETADGSIQQVEQEVAMFCPMICQEVIQKGVGSSKNYAISLPQRVNPAMLSLIFDYCRFHQVPGRSNKERKVYDEKFIRMDTKRLCELTSAADSLQLKPLVDLTSRALARIIEGKTPEEIREIFHLPDDLTEEEKLEPLKNTMDDPRIRLLNRLYAKKRKELKEREKLKSVEVEEHVDERSVDDLLSFINGRDPKVVKTSKSKKKNKKRKEQKNGSSNGTCEALEKDLHNLDSKSQSAEIVDNTASCLGDVSNLPSMEDDIFTPKTEFEDGYIDDEIDPALKELLDREVEDFARRLNSSWVLSIGQERQPVNFSINGNGTSRRLTGPAAGHK
B2: Gal4AD-VIP2 (protein, UniProt Q9FPW4 1-614)
chain: MSNLHSSLNGSASNLPDGSGRSFTASYSGQSGAPSPSFHHTGNLQGLHNIHGNYNVGNMQGTLTSRNSSMNSIPSAGVQQPNGSFSSGRFASNNLPVNLSQLSHGSSHGHSGIPNRGLNVVGNPGFSSNANGVGGSIPGILSTSAGLSNRNSVPGMGISQLLGNSGPRITNSMGNMVGGGNLGRNISSGGLSIPGLSSRLNLAANSGSGLNVQGQNRMMGGVLPQGSQVMSMLGNSYHTGGGPLSQNHVQSVNNMMLSDHPNDSSLFDINNDFPQLTSRPGSAGGTQGHLGSLRKQGLGVPLVQQNQEFSIQNEDFPALPGYKGGNSEYPMDLHQKEQLHDNAMSMMHSQNFSMGRSGGFNLGATYSSHRPQQQPQHTSSTGGLQGLGLRPLSSPNAVSSIGYDQLIQQYQQHQNQSQFPVQQMSSINQFRDSEMKSTQSEADPFCLLGLLDVLNRSNPELTSLALGIDLTTLGLDLNSTGNLYKTFASPWTNEPAKSEVEFTVPNCYYATEPPPLTRASFKRFSYELLFYTFYSMPKDEAQLYAADELYERGWFYHKELRVWFFRVGEPLVRAATYERGTYEYLDPNSFKTVRKEHFVIKYELMEKRPSLLQL
B3: Gal4AD-VIP1 (protein, UniProt Q9MA75 1-341)
chain: MEGGGRGPNQTILSEIEHMPEAPRQRISHHRRARSETFFSGESIDDLLLFDPSDIDFSSLDFLNAPPPPQQSQQQPQASPMSVDSEETSSNGVVPPNSLPPKPEARFGRHVRSFSVDSDFFDDLGVTEEKFIATSSGEKKKGNHHHSRSNSMDGEMSSASFNIESILASVSGKDSGKKNMGMGGDRLAELALLDPKRAKRILANRQSAARSKERKIRYTGELERKVQTLQNEATTLSAQVTMLQRGTSELNTENKHLKMRLQALEQQAELRDALNEALRDELNRLKVVAGEIPQGNGNSYNRAQFSSQQSAMNQFGNKTNQQMSTNGQPSLPSYMDFTKRG
B4: Gal4AD-ASK13 (protein, UniProt Q9M1X5 1-154)
chain: MSKMVMLLSSDGESFQVEEAVAVQSQTIAHMIEDDCVANGVPIANVTGVILSKVIEYCKKHVVSDSPTEESKDELKKWDAEFMKALEQSSTLFDVMLAANYLNIKDLLDLGCQTVADMITGKKPDEIRALLGIENDFTPEEEEEIRKENQWAFE
B5: Gal4AD-ASK10 (protein, UniProt Q9LSX8 1-152)
chain: MSTKKIILKSSDGHSFEVEEEAACQCQTIAHMSEDDCTDNGIPLPEVTGKILEMVIEYCNKHHVDAANPCSDEDLKKWDKEFMEKYQSTIFDLIMAANYLNIKSLLDLACQTVADMIKDNTVEHTRKFFNIENDYTHEEEEAVRRENQWGFE
B6: Gal4AD-ASK11 (protein, UniProt O49484 1-152)
chain: MSSKMIVLMSSDGQSFEVEEAVAIQSQTIAHMVEDDCVADGIPLANVESKILVKVIEYCKKHHVDEANPISEEDLNNWDEKFMDLEQSTIFELILAANYLNIKSLLDLTCQTVADMIKGKTPEEIRSTFNIENDFTPEEEEAVRKENQWAFE
B7: Gal4AD-ASK18 (protein, UniProt Q9SY65 1-158)
chain: MSSNKILLTSSDGESFEIDEAVARKFLIIVHMMEDNCAGEAIPLENVTGDILSKIIEYAKMHVNEPSEEDEDEEAKKNLDSWDAKFMEKLDLETIFKIILAANYLNFEGLLGFASQTVADYIKDKTPEEVREIFNIENDFTPEEEEEIRKENAWTFNE
B8: Gal4AD-ASK4 (protein, UniProt Q9LNT9 1-163)
chain: MAETKKMIILKSSDGESFEIEEAVAVKSQTIKHMIEDDCADNGIPLPNVTGAILAKVIEYCKKHVEAAAEAGGDKDFYGSAENDELKNWDSEFVKVDQPTLFDLILAANYLNIGGLLDLTCKAVADQMRGKTPEQMRAHFNIKNDYTPEEEAEVRNENKWAFE

What follows are molecules tested against LexA-C58VirF (Agrobacterium tumefaciens C58-C1) (UniProt Q7D2D9) (assay: two-hybrid; yeast strain L40 co-transformed with LexA fusions (pSTT91) and Gal4AD fusions (pGAD424); interaction read as histidine prototrophy, growth on SD-Leu-Trp-His, 2-3 days at 28 °C).
In the case of Gal4AD-ASK1 (from UniProt Q39255 1-160), the binding is reported as “binds”.
In the case of B1, the binding is reported as “no binding”.
For B2, the binding was “no binding”.
For B3, the binding was “no binding”.
With B4 the binding was “binds”.
For B5, the binding was “no binding”.
B6 was tested, and the binding was “no binding”.
B7 was tested, and the binding was “binds”.
B8 was tested, and the binding was “binds”.

These are yes or no findings as the source states them, for the method shown. Binding calls can cover weak binding; strength is not graded here.
